Source: PubChem BioAssay AID2685 (National Center for Advancing Translational Sciences (NCATS), 2010)
Out of some 320,000 compounds screened, about 2,100 (0.66%) were called active. This list was built around the results that the source calls inconclusive (neither active nor inactive); the mix of calls is not that of the screen. The call rests on the fitted dose curve; in most records, active means well fitted inhibition curve with a large enough effect in the signal ratio, with a control signal flat (not every such curve was filed as active); inconclusive means small, poorly fitted or top-dose-only effect, or effect the other way, or a change in a side signal; inactive means flat fitted curve, though single readings scatter; the % refers to the signal ratio. Potencies of inconclusive entries are doubtful fits and often do not repeat.

Assay: qHTS Assay for Lipid Storage Modulators in Drosophila S3 Cells
Conditions: BODIPY lipid droplet fluorescence, 18-24 h, cells fed with added oleic acid; lipid storage change, negative = inhibition: at 46.1 µM (top of the series) unless noted
How it was run: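 Laser-scanning cytometry quantifies lipid droplet accumulation (500–530 nm total intensity; droplet/cell object ratio) in oleic acid-fed (400 uM added) Drosophila S3 cells treated with a concentration series. 20 uM Triacsin C defined 100% inhibition.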
On the % scale 0 is the no-effect control and ±100 the full control effect; potency means the concentration at half of the fitted maximal effect.

SMILES | lipid storage change, negative = inhibition | Potency
O=C(OCn1nnc2ccccc2c1=O)c1ccco1 | inconclusive: 4.41% | –
CC(=O)Nc1ccccc1NC(=O)C/C(C)=N/NC(=O)c1cccnc1 | – | inconclusive: 0.082 µM [activator, full curve, poor fit]
Cc1cnc(C(=O)OCC(=O)Nc2cc(Cl)cc(Cl)c2)cn1 | inconclusive: -3.36% | –
Cc1ccc(C)c(NC(=O)Cn2nnc(C(=O)NCc3cccs3)c2N)c1 | inconclusive: -20.1% | –
CCOC(=O)c1cc(NC(=O)NCc2ccco2)c(C)nc1C | – | inconclusive: 6.51 µM [activator, single point]
CSc1ccc(S(=O)(=O)N2CCC(C(=O)Nc3ccc(C(N)=O)cc3)CC2)cc1 | – | inconclusive: 0.731 µM [activator, full curve, poor fit]
CCN1CCN(S(=O)(=O)c2cccc3nsnc23)CC1 | inactive: -15.7% | –
CCN(CC)c1ccc(NC(=O)c2ccccn2)cc1S(=O)(=O)Nc1ccccc1OC | – | inconclusive: 0.058 µM [falling, full curve, poor fit]
O=C(Nc1cc([N+](=O)[O-])ccc1N1CCOCC1)c1ccco1 | inconclusive: -9.44% | –
Cc1cc(C(=O)N2CCCC(C(=O)c3ccc4ccccc4c3)C2)nn1C (stereo unspecified) | inactive: 1.31% | –
O=C(NCC(c1cccs1)N1CCOCC1)c1cn(-c2ccccc2)nc1-c1ccccc1 (stereo unspecified) | – | inconclusive: 29.1 µM [falling, single point]
Cc1csc(NC(=O)c2cccc(S(=O)(=O)N3CCN(C)CC3)c2)n1 | inconclusive: -24.3% | –
CCN(CC)CCCNC1CCS(=O)(=O)C1 (stereo unspecified) | inconclusive: -24.8% | –
CCOc1nc(-c2ccccc2Cl)ccc1C#N | inconclusive: 18.3% | –
Cc1cc(C)c2nc(C(F)(F)F)c(C#N)c(N)c2c1 | – | inconclusive: 2.59 µM [rising, full curve]
c1ccc(Cc2noc(CN3CCCN(C4Cc5ccccc5C4)CC3)n2)cc1 | inconclusive: 28.3% | –
CC1CCN(C(=S)c2ccc(N(C)C)cc2)CC1 | inconclusive: 9.51% | –
c1ccc(-c2cn(C[C@H]3CC[C@@H]([C@@H]4CC[C@H](Cn5cc(-c6ccccn6)nn5)O4)O3)nn2)nc1 | inactive: 7.69% | –
O=[N+]([O-])c1ccccc1S(=O)(=O)NC1CCCCCCC1 | – | inconclusive: 0.92 µM [falling, full curve]
COc1ccc(CNC(=O)CCc2c(C)nc3ncnn3c2C)cc1 | inconclusive: 17.2% | –
Cc1cc(C)c(NC(=O)CSc2nc3ncc(Br)cc3[nH]2)c(Cl)c1 | – | inconclusive: 1.03 µM [falling, full curve]
CCCCN(C)CCCNC(=O)/C=C1\Sc2ccccc2NC1=O | inconclusive: 8.45% | –
CCOc1ccc(N=C(C)c2ccccc2O)cc1 | inconclusive: -2.73% | –
COCCn1c(SCC(=O)N2CCCC2)nnc1C(C)C | inconclusive: -16.5% | –
COc1ccc(NC(=O)Cn2cc(C(=O)c3ccncc3)c(=O)c3cc(C)ccc32)cc1Cl | inconclusive: 16.1% | –
CCOC(=O)N1CCN(C(=O)CN(Cc2ccccc2)S(=O)(=O)c2ccc(OC)c(C)c2)CC1 | – | inconclusive: 16.4 µM [rising, partial curve]

SMILES | lipid storage change, negative = inhibition | Potency
O=C(NCC1CCCCC1)c1ccc(Cl)nc1 | inconclusive: 78.5% | –
c1nc(N2CCCCCC2)c2[nH]cnc2n1 | inconclusive: -9.01% | –
CCc1noc(C)c1C(=O)N1CCCC(CCC(=O)NCc2cccc(OC)c2)C1 (stereo unspecified) | inconclusive: 20.7% | –
CCc1ccc(S(=O)(=O)NCCc2csc(C)n2)s1 | inconclusive: -9.07% [at 9.22 µM] | –
COCCNC(=O)c1c(CSc2ccccc2)noc1C(=O)NCc1ccccc1 | inconclusive: 13% | –
CCN(CC)CCCNC(=O)CNC(=O)c1nn(-c2ccc(OC)c(OC)c2)c(=O)c2ccccc12 | inconclusive: 43.7% | –
COc1ccccc1CN(C)C(=O)C1COc2ccccc2O1 (stereo unspecified) | inconclusive: -27.4% | –
Cc1cccc(C)c1NC(=O)CNC(=O)CCCc1c[nH]c2ccccc12 | inconclusive: 24.5% | –
O=C(NN=C(c1ccccc1)c1ccccc1)C(CCl)C1CCCCC1 (stereo unspecified) | inconclusive: 9.32% | –
CN(C(=O)c1cccc(S(=O)(=O)N2CCCC2)c1)C1CCCCC1 | inconclusive: 0.887% | –
NS(=O)(=O)OCC1CCCCC1 | – | inconclusive: 13 µM [falling, single point]
Cn1c(N)c(C(=O)c2cc(-c3ccccn3)nc3ccccc23)c(=O)[nH]c1=O | – | inconclusive: 6.51 µM [cytotoxic, partial curve]
CC(C)NC(=S)N1CCC(Cc2ccccc2)CC1 | – | inconclusive: 9.2 µM [rising, partial curve, poor fit]
COc1ccc(CC(NC(C)=O)C(=O)NC2CCN(S(=O)(=O)c3ccc(NC(C)=O)cc3)CC2)cc1 (stereo unspecified) | – | inconclusive: 1.46 µM [falling, partial curve, poor fit]
COc1ccc(-c2onc(C)c2-c2ccc3c(c2)OCCO3)c(O)c1 | inconclusive: 19.6% | –
COc1ccccc1C(=O)NC(=O)COC(=O)CNC(=O)c1ccc(Cl)cc1Cl | inconclusive | –
COc1ccc2c(/C=C/c3cc[n+](C)cc3)c[nH]c2c1 | inconclusive: -94.2% | –
COCCN(C(=O)c1cccc(-n2cnnn2)c1)c1c(N)n(CC(C)C)c(=O)[nH]c1=O | inconclusive: -0.721% | –
O=C(NCCN1CCOCC1)c1sc2cc(Cl)ccc2c1Cl | – | active: 4.61 µM
O=C(Nc1ccc([N+](=O)[O-])cc1)C(=O)Nc1cccc(C(=O)O)c1 | inconclusive: -80% | –
Cc1ccc(O)c(NC(=O)c2cc(-c3ccccc3)on2)c1 | inconclusive: -52.4% | –
Cc1ccc(N=Nc2ccc(N)cc2C)c(S(N)(=O)=O)c1 | inconclusive: 5.8% | –
CCOCCCNC(=O)c1cn(CC)c2ccc(S(=O)(=O)N3CCC(C)CC3)cc2c1=O | inconclusive: 77.6% | –
COc1ccc(CCNC(=O)Cn2cnc3c(nnn3Cc3ccc(C)cc3)c2=O)cc1OC | inactive: 5.48% | –
CCOC(=O)c1ccc(CS(=O)c2ccc(Cl)cc2)o1 (stereo unspecified) | inconclusive: 1.91% | –

Ordered by count of non-hydrogen atoms (rising): three of the compounds above.
SMILES | lipid storage change, negative = inhibition | Potency
CCCCN(C)CCCNC(=O)/C=C1\Sc2ccccc2NC1=O | inconclusive: 8.45% | –
Cc1cc(C(=O)N2CCCC(C(=O)c3ccc4ccccc4c3)C2)nn1C (stereo unspecified) | inactive: 1.31% | –
CSc1ccc(S(=O)(=O)N2CCC(C(=O)Nc3ccc(C(N)=O)cc3)CC2)cc1 | – | inconclusive: 0.731 µM [activator, full curve, poor fit]
